In paper PMC11301854:
No constants are given. Whether binding was seen depends on the method and setting. Binding seen in cells or lysates may run through a third protein. Some entries that bind do so weakly or less than the wild type.

How the values were obtained:
[1] = target: Flag-NOTCH1 (human), from the p3xFlag-CMV-NOTCH1 plasmid (human) (UniProt P46531); assay: co-IP; exogenous: lysates (IP lysis buffer) of transfected cells, immunoprecipitated with 3 ug anti-HA or anti-Flag at 4 °C overnight, Protein A/G magnetic beads, Western blot
[2] = target: NOTCH1, endogenous (human (endogenous in SW837, LOVO or 293T cells)) (UniProt P46531); assay: co-IP; endogenous proteins: cell lysates (IP lysis buffer), immunoprecipitated with the indicated antibodies at 4 °C overnight, Protein A/G magnetic beads, Western blot

Substance: Vasorin (VASN) with an added HA tag (from UniProt Q6EMK4 24-673)
- binding [1]: binds

Substance: Vasorin (VASN), endogenous (from UniProt Q6EMK4 24-673)
- binding [2]: binds
